Measurements from publication PMC6525465.
These are yes or no findings as the source states them, for the method shown. Binding seen in cells or lysates may run through a third protein. Some entries that bind do so weakly or less than the wild type.

Protein sequences, listed by entry. Tags and fused reporters are not part of them.
UniProt P14618: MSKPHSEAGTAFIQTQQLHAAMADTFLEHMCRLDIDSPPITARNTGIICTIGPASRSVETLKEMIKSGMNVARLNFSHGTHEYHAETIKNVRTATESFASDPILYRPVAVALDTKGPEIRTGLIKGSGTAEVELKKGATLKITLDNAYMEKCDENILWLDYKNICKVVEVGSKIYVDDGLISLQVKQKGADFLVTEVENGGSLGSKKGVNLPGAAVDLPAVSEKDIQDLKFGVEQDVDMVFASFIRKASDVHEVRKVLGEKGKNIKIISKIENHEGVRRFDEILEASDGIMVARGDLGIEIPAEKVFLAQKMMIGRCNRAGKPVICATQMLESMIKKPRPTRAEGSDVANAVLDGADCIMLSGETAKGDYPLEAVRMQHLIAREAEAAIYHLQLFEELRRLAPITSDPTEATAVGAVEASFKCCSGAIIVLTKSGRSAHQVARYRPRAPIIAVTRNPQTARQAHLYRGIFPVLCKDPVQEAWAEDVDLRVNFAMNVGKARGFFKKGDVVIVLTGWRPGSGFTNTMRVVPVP
UniProt Q16665: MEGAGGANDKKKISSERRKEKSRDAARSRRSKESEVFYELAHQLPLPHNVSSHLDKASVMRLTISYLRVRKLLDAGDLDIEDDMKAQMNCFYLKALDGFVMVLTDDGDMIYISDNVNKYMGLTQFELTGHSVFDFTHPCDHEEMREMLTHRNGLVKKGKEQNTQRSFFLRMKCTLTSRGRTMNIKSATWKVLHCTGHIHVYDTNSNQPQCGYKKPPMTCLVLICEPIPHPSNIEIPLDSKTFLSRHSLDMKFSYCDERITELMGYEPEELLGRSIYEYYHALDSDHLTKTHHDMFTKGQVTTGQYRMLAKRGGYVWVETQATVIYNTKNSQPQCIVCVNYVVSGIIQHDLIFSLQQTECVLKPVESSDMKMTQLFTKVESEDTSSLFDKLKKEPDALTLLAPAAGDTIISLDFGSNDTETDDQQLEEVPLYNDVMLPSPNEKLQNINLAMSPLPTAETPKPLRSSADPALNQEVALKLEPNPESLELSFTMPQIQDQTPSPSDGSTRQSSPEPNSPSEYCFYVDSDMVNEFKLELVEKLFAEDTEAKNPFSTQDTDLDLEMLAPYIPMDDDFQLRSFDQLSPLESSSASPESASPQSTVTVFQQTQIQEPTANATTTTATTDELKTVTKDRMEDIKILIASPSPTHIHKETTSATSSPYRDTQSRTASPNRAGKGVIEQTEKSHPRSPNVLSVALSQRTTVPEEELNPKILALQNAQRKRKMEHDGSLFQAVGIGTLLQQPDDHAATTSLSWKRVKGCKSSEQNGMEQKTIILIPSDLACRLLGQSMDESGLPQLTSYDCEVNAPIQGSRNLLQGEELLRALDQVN

Biological target: pyruvate kinase M2 (human (endogenous in HCC-LM3 and SMMC-7721)) (UniProt P14618)
Experiment: co-IP; HCC cell lines, untreated (NC) or treated with 80 μM PB2 for 24 h; lysed at 4 °C in IP Lysis/Wash Buffer with protease inhibitors; Pierce Co-immunoprecipitation Kit; PKM2 as bait, blots for HIF-1α and HSP90

binding: binds
Substance: hypoxia-inducible factor 1α (from UniProt Q16665 1-826)
